The text below walks through data of publication PMC529456.

By UniProt entry, the sequences of proteins in these tests, tags left out.
UniProt P35568: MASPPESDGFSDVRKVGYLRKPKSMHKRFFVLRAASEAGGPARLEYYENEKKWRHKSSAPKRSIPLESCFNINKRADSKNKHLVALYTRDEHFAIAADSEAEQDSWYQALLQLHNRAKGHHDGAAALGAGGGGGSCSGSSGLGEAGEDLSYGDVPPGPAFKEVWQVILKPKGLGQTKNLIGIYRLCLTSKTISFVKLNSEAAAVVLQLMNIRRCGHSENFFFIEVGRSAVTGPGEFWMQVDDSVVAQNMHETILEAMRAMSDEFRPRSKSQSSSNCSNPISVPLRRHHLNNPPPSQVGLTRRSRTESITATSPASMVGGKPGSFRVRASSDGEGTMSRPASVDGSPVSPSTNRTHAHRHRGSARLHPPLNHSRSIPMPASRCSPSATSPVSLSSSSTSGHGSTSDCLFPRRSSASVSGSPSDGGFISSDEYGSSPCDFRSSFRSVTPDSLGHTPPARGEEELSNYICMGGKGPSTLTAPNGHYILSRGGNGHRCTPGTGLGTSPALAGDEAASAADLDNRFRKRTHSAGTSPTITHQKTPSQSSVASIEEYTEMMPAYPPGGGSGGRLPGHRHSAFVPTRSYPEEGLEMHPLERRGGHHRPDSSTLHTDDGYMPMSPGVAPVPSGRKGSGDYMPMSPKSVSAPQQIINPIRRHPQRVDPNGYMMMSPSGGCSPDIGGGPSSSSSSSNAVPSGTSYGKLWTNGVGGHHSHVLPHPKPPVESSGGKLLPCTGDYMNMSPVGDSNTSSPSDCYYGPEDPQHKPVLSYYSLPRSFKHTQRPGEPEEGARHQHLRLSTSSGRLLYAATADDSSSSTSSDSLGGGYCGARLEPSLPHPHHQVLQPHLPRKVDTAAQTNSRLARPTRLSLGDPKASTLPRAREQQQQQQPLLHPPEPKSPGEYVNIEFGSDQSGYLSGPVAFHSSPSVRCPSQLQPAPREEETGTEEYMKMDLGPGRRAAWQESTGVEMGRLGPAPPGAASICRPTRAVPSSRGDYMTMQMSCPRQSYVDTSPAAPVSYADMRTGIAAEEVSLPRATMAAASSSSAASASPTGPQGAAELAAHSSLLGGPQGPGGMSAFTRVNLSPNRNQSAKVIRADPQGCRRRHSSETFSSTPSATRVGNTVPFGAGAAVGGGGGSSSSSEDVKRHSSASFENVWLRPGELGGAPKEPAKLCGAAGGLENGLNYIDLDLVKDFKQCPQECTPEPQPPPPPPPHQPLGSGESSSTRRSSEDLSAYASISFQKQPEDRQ
UniProt P35569: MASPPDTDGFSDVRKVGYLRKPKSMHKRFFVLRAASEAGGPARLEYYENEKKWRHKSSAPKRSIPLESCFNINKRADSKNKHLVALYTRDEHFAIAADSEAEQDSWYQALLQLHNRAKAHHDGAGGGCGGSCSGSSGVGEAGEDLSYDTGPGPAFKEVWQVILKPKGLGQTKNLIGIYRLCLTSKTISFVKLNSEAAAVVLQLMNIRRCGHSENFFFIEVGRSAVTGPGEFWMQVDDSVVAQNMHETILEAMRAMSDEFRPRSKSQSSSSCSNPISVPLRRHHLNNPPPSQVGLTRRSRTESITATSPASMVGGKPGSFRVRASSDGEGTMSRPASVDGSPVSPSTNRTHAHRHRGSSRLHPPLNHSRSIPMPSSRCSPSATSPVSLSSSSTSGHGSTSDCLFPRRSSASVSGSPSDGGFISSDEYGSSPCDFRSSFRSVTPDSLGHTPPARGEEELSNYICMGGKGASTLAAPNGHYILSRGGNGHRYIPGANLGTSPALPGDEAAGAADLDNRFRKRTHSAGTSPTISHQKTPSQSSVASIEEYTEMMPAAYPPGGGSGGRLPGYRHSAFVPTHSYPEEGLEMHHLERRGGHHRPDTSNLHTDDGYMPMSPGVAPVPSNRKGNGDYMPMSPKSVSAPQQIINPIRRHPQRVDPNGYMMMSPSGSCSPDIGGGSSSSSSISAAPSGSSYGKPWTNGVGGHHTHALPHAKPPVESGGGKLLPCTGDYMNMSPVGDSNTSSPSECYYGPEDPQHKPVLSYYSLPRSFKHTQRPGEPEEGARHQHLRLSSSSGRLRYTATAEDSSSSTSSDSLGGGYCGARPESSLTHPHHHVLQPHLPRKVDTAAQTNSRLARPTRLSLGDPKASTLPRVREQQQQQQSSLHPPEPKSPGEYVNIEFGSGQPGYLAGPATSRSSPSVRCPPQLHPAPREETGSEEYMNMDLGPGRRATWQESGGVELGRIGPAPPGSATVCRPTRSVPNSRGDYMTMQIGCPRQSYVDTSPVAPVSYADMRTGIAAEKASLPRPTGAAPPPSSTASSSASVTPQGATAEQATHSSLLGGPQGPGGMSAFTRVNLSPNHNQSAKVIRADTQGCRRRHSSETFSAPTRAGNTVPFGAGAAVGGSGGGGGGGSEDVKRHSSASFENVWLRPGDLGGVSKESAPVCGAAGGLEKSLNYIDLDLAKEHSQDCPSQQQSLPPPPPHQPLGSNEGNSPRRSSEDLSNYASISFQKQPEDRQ
UniProt Q13547: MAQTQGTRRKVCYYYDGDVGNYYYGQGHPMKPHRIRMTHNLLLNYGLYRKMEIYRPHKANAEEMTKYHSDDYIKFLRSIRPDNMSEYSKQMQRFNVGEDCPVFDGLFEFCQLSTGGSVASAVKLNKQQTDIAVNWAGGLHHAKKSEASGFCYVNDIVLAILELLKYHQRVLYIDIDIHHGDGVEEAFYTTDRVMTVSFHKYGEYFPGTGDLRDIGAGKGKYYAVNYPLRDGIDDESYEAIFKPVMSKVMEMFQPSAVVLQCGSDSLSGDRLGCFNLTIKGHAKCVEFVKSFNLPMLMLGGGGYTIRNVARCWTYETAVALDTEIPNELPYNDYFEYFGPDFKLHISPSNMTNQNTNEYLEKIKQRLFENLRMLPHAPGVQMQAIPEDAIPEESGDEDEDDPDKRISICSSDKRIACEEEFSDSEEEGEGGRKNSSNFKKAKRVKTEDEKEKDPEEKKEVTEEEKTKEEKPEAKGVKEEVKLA
UniProt Q92769: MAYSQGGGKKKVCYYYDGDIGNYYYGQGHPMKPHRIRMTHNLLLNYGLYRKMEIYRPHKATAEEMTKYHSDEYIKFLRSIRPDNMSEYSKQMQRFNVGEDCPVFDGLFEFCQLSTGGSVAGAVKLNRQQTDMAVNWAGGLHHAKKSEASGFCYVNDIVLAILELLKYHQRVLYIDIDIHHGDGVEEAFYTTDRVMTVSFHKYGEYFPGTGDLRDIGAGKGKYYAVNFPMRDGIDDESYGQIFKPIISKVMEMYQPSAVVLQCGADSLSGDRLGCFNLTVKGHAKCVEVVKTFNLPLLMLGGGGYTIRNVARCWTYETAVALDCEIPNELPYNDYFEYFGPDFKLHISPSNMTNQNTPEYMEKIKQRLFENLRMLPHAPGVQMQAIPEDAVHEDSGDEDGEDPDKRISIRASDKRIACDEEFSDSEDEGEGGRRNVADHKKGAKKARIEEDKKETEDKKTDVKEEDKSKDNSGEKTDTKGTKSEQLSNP
UniProt P70288: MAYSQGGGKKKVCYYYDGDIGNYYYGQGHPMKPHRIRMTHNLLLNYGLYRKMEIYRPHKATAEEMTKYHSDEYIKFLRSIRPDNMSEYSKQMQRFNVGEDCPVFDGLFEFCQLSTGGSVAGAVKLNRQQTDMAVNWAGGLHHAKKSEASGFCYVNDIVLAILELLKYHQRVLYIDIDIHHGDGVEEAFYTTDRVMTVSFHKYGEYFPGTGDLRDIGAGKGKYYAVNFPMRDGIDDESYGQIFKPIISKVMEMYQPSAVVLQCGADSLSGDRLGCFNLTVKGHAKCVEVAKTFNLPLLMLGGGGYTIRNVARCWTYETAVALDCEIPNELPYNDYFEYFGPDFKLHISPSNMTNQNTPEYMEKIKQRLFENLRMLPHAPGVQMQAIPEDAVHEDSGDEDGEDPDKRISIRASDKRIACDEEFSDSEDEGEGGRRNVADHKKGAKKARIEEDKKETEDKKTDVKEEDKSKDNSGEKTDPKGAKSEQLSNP

Results are given in words; binding and its absence hold for the method and conditions named. In cells and extracts the contact can be indirect. Some binding calls cover weakened binding; strength is not graded here.

Assay [1] has as its target IRS-1, endogenous in MCF-7 cells (human (endogenous in MCF-7)) (UniProt P35568). Put plainly: co-IP; unpublished observation; endogenous proteins from MCF-7 cells; no significant change by prolonged insulin stimulation or PMA.
Assay [2] shares this target. Put plainly: co-IP; endogenous proteins, MCF-7 lysates; IRS-1 immunoprecipitated, blotted for HDAC2; cells treated with IGF-1 (10 ng/ml), insulin (100 nM), PMA (10 ng/ml), DesCoA (10 nM), TSA (150 ng/ml) in combinations; washes with 500 mM NaCl.
The target of assay [3] is IRS-1, endogenous in mouse liver (mouse (endogenous in liver)) (UniProt P35569). Put plainly: co-IP; liver lysates of PTP1B knockout mice; IRS-1 immunoprecipitated, blotted for HDAC2.
The target is the same in assay [4]. As to the kind of experiment: co-IP; liver lysates of ob/ob mice and of balb/cJJ mice; IRS-1 immunoprecipitated, blotted for HDAC2.
For assay [5] the target is unchanged. As to the kind of experiment: condition: only liver of C57/bl6 genotype control mice; co-IP; liver lysates of C57/bl6 genotype control mice; IRS-1 immunoprecipitated, blotted for HDAC2.

Take “HDAC1, endogenous in MCF-7 cells (from UniProt Q13547 1-482)”: in assay [1], the binding result is “binds”.
For the substance “HDAC2, endogenous in MCF-7 cells (from UniProt Q92769 1-488)”, in assay [2], the binding result is “binds”.
For “HDAC2, endogenous in mouse liver (from UniProt P70288 1-488)”, the binding entry in assay [3] was “no binding (condition: liver of PTP1B knockout mice)”; in assay [4], “binds”; in assay [5] it was “no binding”.
